We go through 34 molecules from PubChem BioAssay AID1487 (National Center for Advancing Translational Sciences (NCATS), 2009).

A short description of the test: qHTS Assay for Modulators of Lamin A Splicing. The settings on record: HeLa LMNA splicing GFP/RFP minigene ratio, 48 h. In a few lines:
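S3 HeLa stable clones carrying a lamin A-EGFP splicing minigene plus DsRed2 were seeded at 600 cells/well in Opti-MEM with 2% FBS, pin-dosed and incubated 48 h at 37°C. Acumen cytometry (488 nm) gave the GFP/RFP total-intensity ratio.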

Setting [1] is: measured here: GFP splicing reporter channel.
[2] abbreviates: measured here: RFP viability control channel.

For orientation: AC50 means the concentration at which the activity in the assay is half-maximal.

The list shows a part of the results. Further columns of the screen follow, without active or inactive calls. The list favours compounds with an active or inconclusive main result. Words in brackets tell the shape of the fitted curve; partial curves, single points and poor fits give uncertain potencies.

Turning to `Nc1ccc(N2CCCCC2)cc1N1CCCCC1`, the AC50 reads like this: under setting [1], 15.8 µM [rising, partial curve]; under setting [2], 17.8 µM [rising, partial curve]. With `Cc1nn(-c2ccccc2)c(C)c1/C=N/NC(=O)c1cc(-c2ccc(Cl)s2)[nH]n1`, the AC50 under setting [1] is 7.08 µM [falling, partial curve] and the half-maximal activity concentration (AC50) under setting [2] is 7.94 µM [falling, partial curve]. As for `Cc1cccc(Oc2nc3ccccn3c(=O)c2/C=C(\C#N)C(=O)NC2CCS(=O)(=O)C2)c1` (centres undefined), under setting [2], the concentration at half-maximal activity (AC50) was 20 µM [rising, single point]. With `COc1cc(OC)c(NS(=O)(=O)c2ccc(Cl)c(C(=O)OC(C)C(=O)N3CCCC3)c2)cc1Cl` (centres undefined), the half-maximal activity concentration (AC50) is 8.91 µM [rising, partial curve, poor fit] under setting [1] and 12.6 µM [rising, partial curve] under setting [2].

`FC(F)(F)c1ccccc1-c1nc(NCc2cccs2)c2ccccc2n1`: the half-maximal activity concentration (AC50) under setting [1] was 25.1 µM [falling, single point] and the half-maximal activity concentration (AC50) under setting [2] is 25.1 µM [falling, single point].

For the molecule `O=c1c2ccccc2nc(SCc2nc(-c3ccccc3)no2)n1-c1ccc(F)cc1`, the half-maximal activity concentration (AC50) under setting [2] is 22.4 µM [rising, single point]. In the case of `Fc1ccc(Nc2nc(-c3ccoc3)nc3ccccc23)cc1`, the AC50 by setting is: under setting [1], 14.1 µM [falling, partial curve, poor fit]; under setting [2], 14.1 µM [falling, partial curve, poor fit]. For `CCOc1ccccc1NC(=O)Nc1cccc(S(N)(=O)=O)c1`, the concentration at half-maximal activity (AC50) is 28.2 µM [falling, single point] under setting [1] and 35.5 µM [falling, single point] under setting [2].

As to `Cc1oc2ncn(C)c(=O)c2c1C(=O)NCc1ccc(Cl)cc1`, the AC50 under setting [1] was 0.126 µM [rising, full curve, poor fit]. Still for that read-out and setting: the figure for `COc1ccc(-c2nc(Cn3c(SCc4cccc(C(F)(F)F)c4)nc4cccnc43)c(C)o2)cc1OC` is 0.02 µM [falling, full curve, poor fit]. Consider `Cc1cccc(NC(=O)CSc2nnc(CNC(=O)c3ccc(S(=O)(=O)N(C)C)cc3)n2-c2ccccc2)c1`, for which the half-maximal activity concentration (AC50) under setting [2] is 20 µM [rising, single point]. On the same count and under the same terms, the result for `CCCNCC1C(Oc2ccc(Cl)cc2)C(=O)N1c1ccccc1C` (centres undefined) reads 35.5 µM [rising, single point]. Same read-out and setting: the figure for `COc1cc2c3nnc(-c4ccc(F)cc4)c-3cn(Cc3ccccc3)c2cc1OC` is 35.5 µM [falling, single point]; for `CCN(CC)c1ccc(C(=O)NCc2ccc3c(c2)CCN3C(=O)c2ccc(F)cc2)cc1` it is 11.2 µM [rising, single point]. With `Cc1cc(N2CCCC2)nc2c(C)cccc12`, the AC50 under setting [1] was 0.0891 µM [falling, full curve, poor fit].

Consider `COc1cccc(OCc2nc3ncc(Br)cc3[nH]2)c1`, for which the concentration at half-maximal activity (AC50) under setting [2] is 4.47 µM [rising, partial curve, poor fit].

In the case of `COc1ccc(C(=O)NNc2ncnc3c2cnn3-c2cccc(Cl)c2)cc1OC`, the AC50 is, setting by setting: under setting [1], 35.5 µM [falling, single point]; under setting [2], 35.5 µM [falling, partial curve]. Regarding `COc1ccc(C2=NOC(C(=O)NCc3ccco3)C2)cc1` (centres undefined), under setting [2], the half-maximal activity concentration (AC50) is 3.55 µM [rising, full curve, poor fit].

With `Cc1cs/c(=N\N=C\c2ccccc2)n1Cc1ccco1`, the AC50 was 20 µM [rising, single point] under setting [1] and 35.5 µM [rising, single point] under setting [2].

As to `O[Si](CCCN1CCCCC1)(c1ccc(F)cc1)C1CCCCC1` (centres undefined), the AC50 by setting is: under setting [1], 15.8 µM [falling, single point]; under setting [2], 20 µM [falling, single point]. Turning to `COc1ccc(Cl)cc1CNCCSc1nnnn1-c1ccccc1`, the AC50 is 0.00708 µM [rising, full curve, poor fit] under setting [1] and 0.00891 µM [rising, full curve, poor fit] under setting [2]. With `COc1ccc(S(=O)(=O)N2CCC(C(=O)NCc3ccccc3)CC2)cc1OC`, the AC50 under setting [1] is 0.891 µM [rising, partial curve, poor fit].

As for `CC(C)C(c1nnnn1C1CCCC1)N1CCC(C(N)=O)CC1` (centres undefined), the AC50 under setting [2] was 35.5 µM [falling, single point]. Turning to `COc1ccc(CNC(=O)C(=O)NCC(c2ccco2)N2CCOCC2)cc1` (centres undefined), the AC50 is 11.2 µM [falling, partial curve] under setting [1] and 10 µM [falling, partial curve] under setting [2]. As to `COc1cc(C(=O)Nc2ccc3c(c2)N(C2CCCC2)C(=O)c2ccccc2S3)cc(OC)c1OC`, the half-maximal activity concentration (AC50) under setting [1] was 8.91 µM [falling, partial curve, poor fit]. The same measure, in the same setting: the result for `CC(C)Oc1ccc(C(=O)NCC(c2ccc(N(C)C)cc2)N2CCCC2)cc1` (centres undefined) reads 7.08 µM [falling, partial curve, poor fit]. In the case of `COc1ccc(CCNC(=O)c2nc(-c3cccs3)no2)cc1OC`, the AC50 under setting [2] is 22.4 µM [rising, single point]. Same read-out and setting: the result for `CCC(SC1=NCCS1)C(=O)Nc1nnc(-c2ccccc2OC)s1` (centres undefined) reads 12.6 µM [rising, partial curve].

On to `Cc1ccc(NS(=O)(=O)c2cc(-c3cnc(C4CC4)o3)ccc2C)cc1Cl`, for which the AC50 under setting [1] is 12.6 µM [falling, partial curve, poor fit] and the AC50 under setting [2] was 3.55 µM [rising, single point].

Consider `COC(=O)c1cc(CSc2nnc(NC3CCCCC3)s2)oc1C`, for which, under setting [2], the half-maximal activity concentration (AC50) is 22.4 µM [rising, single point]. With `CCCCNC(=O)c1cc(-c2ccc(OC)cc2)nc2n[nH]c(-c3cccc([N+](=O)[O-])c3)c12`, under setting [2], the concentration at half-maximal activity (AC50) is 0.316 µM [falling, partial curve, poor fit].

Consider `CNC(=S)NNC(=O)Cc1ccc(O)cc1`, for which the concentration at half-maximal activity (AC50) under setting [1] was 3.55 µM [rising, partial curve] and the AC50 under setting [2] was 0.891 µM [rising, full curve, poor fit]. As to `COc1ccc(NC(=O)COc2ncnc3ccccc23)cc1S(=O)(=O)N1CCOCC1`, the AC50 reads like this: under setting [1], 0.0794 µM [falling, full curve, poor fit]; under setting [2], 0.126 µM [falling, full curve]. For `Nc1nc(NCc2ccco2)nc(N2CCCCC2)c1[N+](=O)[O-]`, the AC50 was 5.62 µM [rising, partial curve] under setting [1] and 1.58 µM [rising, partial curve, poor fit] under setting [2].
